According to the supplement of paper PMC10338343:
± gives the standard deviation. Only a part is listed here, and it is no random draw. Many of these values have a large error.

What was measured:
[1] = system: MILI (PIWIL2) piRISC loaded with piRNA #1 (26 nt); assay: pre-steady-state target cleavage rate (min^-1); higher = faster piRNA-guided slicing of the target; settings: guide: piRNA #1 5'p-UGAGGUAGUAGGUUGUAUAGUAUCCA; auxiliary factor: 500 nM mouse GTSF1
How it was run: (§1)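 Cleave-'n-Seq measured uncleaved targets by sequencing after a transcribed, DNA-blocked target RNA library […] was mixed with 1 nM active affinity-purified piRISC holding one synthetic guide, with or without 500 nM GTSF1 partner protein, at 33 °C in HEPES–potassium acetate buffer for 0–8 or 0–960 min. Counts were normalised to depth and to weakly complementary targets, three trials were pooled, and k3 was capped at 0.0001 min^-1. A burst-and-steady-state fit gave the pre-steady-state cleavage rate.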

[2] = system: MIWI (PIWIL1) piRISC loaded with piRNA #1 (30 nt); assay: as above; settings: guide: piRNA #1 5'p-UGAGGUAGUAGGUUGUAUAGUAUCCAGAGG; auxiliary factor: 500 nM mouse GTSF1
How it was run: as §1

[3] = system: EfPiwi piRISC loaded with piRNA #1 (26 nt); assay: pre-steady-state target cleavage rate (min^-1); guide: piRNA #1 5'p-UGAGGUAGUAGGUUGUAUAGUAUCCA; MIWI and MILI are mouse PIWI proteins and EfPiwi is from a freshwater sponge; tags in brackets are library labels; higher = faster piRNA-guided slicing of the target; settings: auxiliary factor: 500 nM Ephydatia muelleri Gtsf1
How it was run: as §1

Sequence | pre-steady-state target cleavage rate [1] | pre-steady-state target cleavage rate [2] | pre-steady-state target cleavage rate [3]
GGAGACCUAUGAUAUGUUCCAUGUACCUCA | 0.000685 ± 0.01 | 0.00139 ± 0.0054 | 0.00114 ± 0.0035
GGAGACCAUACUAAACAACCUAGUACCUCA | 0.0362 ± 0.0083 | – | 0.00435 ± 0.0053
GGAGUGGAUACUAUACAACCUACAUGGAGA [g8:g26:cont:t1A] | 0.000518 ± 0.0078 | 0.000128 ± 0.019 | 0.00103 ± 0.0032
GGAGACCAUACUUUACAUCCUACUACCUCA | 0.296 ± 0.029 | – | 0.00254 ± 0.0036
GGAGACCUAUGAUUACAACCAUCUACCUCA | 0.00248 ± 0.0031 | 0.000212 ± 0.011 | 0.000286 ± 0.0097
GGAGACCUAUGAUAUCAUCCUACUACGUCA | 0.000554 ± 0.0078 | 0.000742 ± 0.0057 | 0.00132 ± 0.0064
GGAGACCUAUGUAUACAACGUACUAGCUCA | 0.00195 ± 0.0035 | 0.000413 ± 0.009 | 0.00197 ± 0.004
GGAGACCUAACUAUACAACCAUACUACCUCA | 0.00338 ± 0.0065 | 0.000788 ± 0.013 | 0.00116 ± 0.0069
GGAGACCUAUCUAUACAAACCUACUACCUCA | 0.00125 ± 0.0054 | 0.000247 ± 0.012 | 0.00214 ± 0.0035
GGAGACCUAUCUAUACAACCUUGUACCUCA | 0.00134 ± 0.0058 | – | 0.000745 ± 0.0058
GGAGAGGAUAGUAUACAACGUACUACCUCA | 0.00214 ± 0.0048 | – | 0.000966 ± 0.0042
GGAGACCAUACUAUUCAACCUAGUACCUCA | 0.0559 ± 0.011 | – | 0.00166 ± 0.0022
GGAGACGAUACUAUACAACGCUACUACCUCA | 0.00688 ± 0.0028 | 0.000612 ± 0.0097 | 0.00969 ± 0.0037
GGAGACCUAUGAUUUCAACCUAGUACCUCA | 0.0013 ± 0.005 | 0.00045 ± 0.007 | 0.00098 ± 0.0072
GGAGACCUAUGAUAACAACCUACAACCACA | 0.00184 ± 0.0042 | 0.000146 ± 0.012 | 0.000152 ± 0.034
GGAGACCUAUGAAUACAACCUACUACGAGA | 0.00114 ± 0.0057 | 0.000467 ± 0.015 | 0.000618 ± 0.0081
GGAGACCUAUGAUUACAACCUAGUACCUGA | 0.000156 ± 0.011 | 0.000115 ± 0.013 | 0.000262 ± 0.0079
GGAGACCUAUGAUUACAACCAACUACCUCA | 0.00212 ± 0.0031 | 0.000174 ± 0.013 | 0.00145 ± 0.0056
GGAGACCUAUGAUAUGUUGCGUACUACCUCA | 0.000455 ± 0.012 | 0.000969 ± 0.0047 | 0.000334 ± 0.01
GGAGACCUAUGAAUACAACCAAGUACCUCA | 0.00253 ± 0.0033 | 0.000697 ± 0.0037 | 0.000125 ± 0.022
GGAGACCUAUGAUUACAAUCCUACUACCUCA | 0.000499 ± 0.015 | 0.000514 ± 0.012 | 0.00106 ± 0.007
GGAGACCUAUGAUAACAACCACUACCUCA | 0.000382 ± 0.013 | 0.000219 ± 0.0074 | 0.000232 ± 0.013
GGAGACCUAUGAUUACAACCUAGUACCACA | 0.00109 ± 0.0057 | 0.000262 ± 0.0076 | 0.000783 ± 0.006
GGAGACCAUACUAUACAACCUACUAGCACA | 0.0527 ± 0.018 | – | 0.00447 ± 0.0023
GGAGACCUAUGAUAUCUUCCUACUACCUCA | 0.000208 ± 0.011 | 0.000181 ± 0.013 | 0.00107 ± 0.0055

Sequence | pre-steady-state target cleavage rate [1] | pre-steady-state target cleavage rate [2] | pre-steady-state target cleavage rate [3]
GGAGACCUAUGAUAACUUCCUACUACCUCA | 0.000493 ± 0.0071 | 0.000262 ± 0.0077 | 0.000314 ± 0.0086
GGAGACCUAUGAUAUGUUGCUACUUCCUGA | 0.000328 ± 0.0083 | 0.000237 ± 0.015 | 0.000127 ± 0.013
GGAGACCUAUGAUUACAACCUACUUCCUGA | 0.00134 ± 0.0048 | 0.000238 ± 0.0077 | 0.000735 ± 0.0077
GGAGACCUAUGAUUACAACCUAGUACCUCA | 0.00239 ± 0.0027 | 0.00196 ± 0.0023 | 0.00254 ± 0.0039
GGAGACCUAUGAUAUGUACCUAGUACGUCA | 0.000728 ± 0.0081 | 0.000962 ± 0.0058 | 0.000167 ± 0.012
GGAGACCAUACUAUACAACCUAGUAGCUCA | 0.000782 ± 0.011 | – | 0.00225 ± 0.0017
GGAGUGGAUACAAUUCAACCUACUACCUCA | 0.178 ± 0.0092 | – | 0.00367 ± 0.0038
GGAGACCUAUGUAUACAACCUAGAUGGAGA [g9:g19:cont:t1A] | 0.000119 ± 0.018 | – | 0.000696 ± 0.0082
GGAGACCUAUGAUAACAACCUACUAGGAGA [g6:g16:cont:t1A] | 0.000142 ± 0.026 | – | 0.000296 ± 0.015
GGAGAGGAUUCUAUACAACCUACUACCACA | 0.113 ± 0.011 | – | 0.00156 ± 0.0022
GGAGACCUUACUAUACAACCUACUACGCUCA | 0.256 ± 0.019 | – | 0.00311 ± 0.004
GGAGAGGAUUCUAUACAUCCUACUACCUCA | 0.263 ± 0.013 | – | 0.00257 ± 0.003
GGAGACCUAUGAUAAGUACCUACUACCUCA | 0.000199 ± 0.013 | – | 0.000478 ± 0.0053
GGAGACCUUACUAUACAACCACUACCUCA | 0.00164 ± 0.0048 | – | 0.0103 ± 0.0057
GGAGAGGAUACUAUACAAGCCUACUACCUCA | 0.00283 ± 0.0037 | – | 0.00835 ± 0.005
GGAGAGGAUACUAUACAACCUACUACCUCG [g2:g25:cont:t1G] | 0.175 ± 0.015 | – | 0.143 ± 0.048
GGAGACCUUACUAUACUACGUACUACCUCA | 0.0307 ± 0.0046 | – | 0.00111 ± 0.003
GGAGACCUAUGAUUAGAUCCUACUACCUCA | 0.000239 ± 0.01 | – | 0.000411 ± 0.005
GGAGACCUUACUAUACAACCUACUACCAUCA | 0.162 ± 0.024 | – | 0.00369 ± 0.0024
GGAGUGCAUACUAUACAAGCUACUACCUCA | 0.213 ± 0.014 | – | 0.00482 ± 0.002
GGAGACCUUACUAUACAACCUUCUACCUGA | 0.00235 ± 0.0035 | – | 0.00341 ± 0.0028
GGAGACCUAUGAUAAGAACCUACUACCUCA | 0.000666 ± 0.0066 | – | 0.000624 ± 0.0066
GGAGACCUAUGAUUAGAACCUACAACCUCA | 0.000147 ± 0.032 | – | 0.000262 ± 0.023
GGAGACGAUUCUAAACAACCUACUACCUCA | 0.168 ± 0.012 | – | 0.00926 ± 0.0045
GGAGUGGAUACAAUAGAACCUACUACCUCA | 0.163 ± 0.009 | – | 0.00115 ± 0.0028

Full records, quoted from the list.
GGAGACCAUACUUUACAUCCUACUACCUCA is entered as pre-steady-state target cleavage rate [1] = 0.296 ± 0.029; pre-steady-state target cleavage rate [3] = 0.00254 ± 0.0036
GGAGACCUAUGAUAAGUACCUACUACCUCA is entered as pre-steady-state target cleavage rate [1] = 0.000199 ± 0.013; pre-steady-state target cleavage rate [3] = 0.000478 ± 0.0053
GGAGUGGAUACAAUUCAACCUACUACCUCA is entered as pre-steady-state target cleavage rate [1] = 0.178 ± 0.0092; pre-steady-state target cleavage rate [3] = 0.00367 ± 0.0038
GGAGACCUUACUAUACAACCUACUACCAUCA is entered as pre-steady-state target cleavage rate [1] = 0.162 ± 0.024; pre-steady-state target cleavage rate [3] = 0.00369 ± 0.0024

The results go on:

Sequence | pre-steady-state target cleavage rate [1] | pre-steady-state target cleavage rate [2] | pre-steady-state target cleavage rate [3]
GGAGACCUAUCUAUACAACCUAGUAGCUCA | 0.00169 ± 0.0046 | – | 0.00367 ± 0.0043
GGAGACCUAUGAUAUGUUGCUUCUUCCUCA | 0.000113 ± 0.019 | – | 0.000218 ± 0.012
GGAGUGGAUACUAUACAUCGUACUACCUCA | 0.0624 ± 0.0061 | – | 0.0051 ± 0.0023
GGAGACCUAUGAUAUGAACCUACUACCUCA | 0.000409 ± 0.0086 | – | 0.0007 ± 0.007
GGAGACCUAUGAUAUCAACCUCACUACCUCA | 0.000395 ± 0.0082 | – | 0.000253 ± 0.013
GGAGUCGAAACUAUACAACCUACUACCUCA | 0.18 ± 0.019 | – | 0.0604 ± 0.021
GGAGUGGAUACUAUACAACCUAGAUGGAGA [g9:g26:cont:t1A] | 0.000285 ± 0.0085 | – | 0.0017 ± 0.0039
GGAGACGAUACUAUACAACCUUCUACGUCA | 0.00189 ± 0.0048 | – | 0.00448 ± 0.0019
GGAGACCUAUGAUAUGUACCUACUACGCUCA | 0.000101 ± 0.028 | – | < 0.0001
GGAGUGGAAACUAUACAACCUACUAGCUCA | 0.0453 ± 0.013 | – | 0.00278 ± 0.0045
GGAGACCAUUCUAUACAAGCUACUACCUCA | 0.254 ± 0.018 | – | 0.00183 ± 0.0027
GGAGACCUUACUAUACAACGAUCUACCUCA | 0.000121 ± 0.032 | – | 0.000289 ± 0.018
GGAGAGGAUUCUAUACAACCAACUACCUCA | 0.00507 ± 0.0028 | – | 0.00361 ± 0.0027
GGAGACCUAACAAUACAACCUUCUACCUCA | 0.00457 ± 0.0048 | – | 0.00277 ± 0.0041
GGAGAGGAUACUAAACAUCCUACUACCUCA | 0.276 ± 0.022 | – | 0.00524 ± 0.0024
GGAGAGGAUACUAUACAACCAUCUACCUCA | 0.00516 ± 0.0022 | – | 0.0052 ± 0.002
GGAGACCUUACUAUACAAACUACUACCUCA | 0.204 ± 0.014 | – | 0.00215 ± 0.0025
GGAGACCUAUGAUAAGAACGUACUACCUCA | 0.000249 ± 0.014 | – | 0.00121 ± 0.0078
GGAGACCUAUGUAUACAACCUACUCCCUCA | 0.0316 ± 0.0063 | – | 0.0021 ± 0.0042
GGAGACCAUACUAUACAACCAUGAUGGAGA [g11:g23:cont:t1A] | 0.000425 ± 0.014 | – | 0.00272 ± 0.0042
GGAGACCAUACUAUUCAACCUUCUACCUCA | 0.00695 ± 0.0026 | – | 0.00206 ± 0.004
GGAGACCAUACUAUACAACCUAGUACGUCA | 0.0015 ± 0.0065 | – | 0.00483 ± 0.0024
GGAGACCUUACUAUACAACCUACUACCUUA | 0.174 ± 0.019 | – | 0.0898 ± 0.034
GGAGACCUUACUAUACAACCUAGAACCUCA | 0.00842 ± 0.0033 | – | 0.00138 ± 0.0073
